# US12453728B1, “Compositions comprising inhibitors of microsomal triglyceride transfer protein and Apo-B secretion” (Redux Therapeutics, LLC, priority 2024, dated 2025)
# At least one compound was matched to its structure with a doubt left.
# What was measured:
# [1] = Lipid profile and glucose; settings: Day 9-15; olanzapine alone vs olanzapine + Compound 3
# [2] = Postprandial triglycerides after a standardized breakfast in subjects treated with olanzapine; settings: normal healthy volunteers; 10 mg olanzapine alone, or 10 mg olanzapine + 200 mg Compound 3 BID (days 8-15)
structure (smiles),measurement,setting,value
Cc1cc2c(s1)Nc1ccccc1N=C2N1CCN(C)CC1 [olanzapine],LDL-C,[1],significantly increase LDL-C
same,postprandial triglycerides,[2],increased postprandial triglycerides
